# Measurements taken from PubChem BioAssay AID2551 (National Center for Advancing Translational Sciences (NCATS), 2010).
# By UniProt entry, the sequences of proteins in these tests, tags left out.
# UniProt P51450, whole entry: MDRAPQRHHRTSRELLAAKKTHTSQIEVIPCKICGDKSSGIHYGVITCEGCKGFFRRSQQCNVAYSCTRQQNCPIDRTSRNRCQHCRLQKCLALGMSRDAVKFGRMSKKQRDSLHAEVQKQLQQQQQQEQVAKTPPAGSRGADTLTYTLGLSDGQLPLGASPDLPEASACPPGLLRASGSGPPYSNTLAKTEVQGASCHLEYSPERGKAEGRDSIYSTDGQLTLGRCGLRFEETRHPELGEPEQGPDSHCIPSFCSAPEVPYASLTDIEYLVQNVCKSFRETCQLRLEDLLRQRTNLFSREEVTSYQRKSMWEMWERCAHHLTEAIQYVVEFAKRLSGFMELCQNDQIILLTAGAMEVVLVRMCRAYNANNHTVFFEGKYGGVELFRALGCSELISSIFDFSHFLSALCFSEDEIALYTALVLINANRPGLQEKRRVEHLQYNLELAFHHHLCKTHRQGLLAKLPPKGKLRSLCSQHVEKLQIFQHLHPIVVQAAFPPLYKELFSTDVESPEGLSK
# Out of some 310,000 compounds screened, about 17,000 (5.5%) were called active. All entries are inconclusive by the source's own rule. Clear calls are listed elsewhere. The call rests on the fitted dose curve; in most records, active means well fitted inhibition curve with a large enough effect; inconclusive means small, poorly fitted or top-dose-only effect, or effect the other way; inactive means no such curve, though single readings can be large or run the other way.
# Target: Nuclear receptor ROR-gamma (Mus musculus) (UniProt P51450)
# Assay: qHTS for inhibitors of ROR gamma transcriptional activity; further: nearly all actives have a fitted effect of over 60% in size
# Conditions: Drosophila S2 Gal4-RORgamma UAS-luciferase reporter, 20 h
# Potency means the concentration at half of the fitted maximal effect.
row,Structure (SMILES),Potency
1,Cc1cc(-c2cccc3ccccc23)c(C)cn1.O=[N+]([O-])c1cc([N+](=O)[O-])c(O)c([N+](=O)[O-])c1,inconclusive: 7.94 µM
2,CCCCCOc1ccc(NP(C)(=O)Oc2ccc(Cl)cc2Cl)cc1 (stereo unspecified),inconclusive: 17.8 µM
3,Cc1c(NP(C)(=O)Oc2ccc(C(C)C)cc2)c(=O)n(-c2ccccc2)n1C (stereo unspecified),inconclusive: 11.2 µM
4,Cc1cccc(C)c1OP(C)(=O)Nc1ccc(SC(F)(F)F)cc1 (stereo unspecified),inconclusive: 35.5 µM
5,O=C(O)C1(O)c2ccccc2-c2ccccc21,inconclusive: 1.41 µM
6,CC(C)(C)c1ccc(OP(C)(=O)Nc2ccc(SC(F)(F)F)cc2)cc1 (stereo unspecified),inconclusive: 17.8 µM
